From patent US20050187156A1 (Stanford University, published 2005)
Results are given in words; binding and its absence hold for the method and conditions named. For part of these data: In cells and extracts the contact can be indirect. Some entries that bind do so weakly or less than the wild type. Where a sequence is shown, tags or fusion partners need not be part of it.

B1: D(86)A εPKC mutant (enzyme, human, UniProt Q02156 1-737, looked up)
chain: MVVFNGLLKIKICEAVSLKPTAWSLRHAVGPRPATFLLDPYIALNVDDSRIGQTATKQKTNSPAWHDEFVTDVCNGRKIELAVFHAAPIGYDDFVANCTIQFEELLQNGSRHFEDWIDLEPEGRVYVIIDLSGSSGEAPKDNEERVFRERMRPRKRQGAVRRRVHQVNGHKFMATYLRQPTYCSHCRDFIWGVIGKQGYQCQVCTCVVHKRCHELIITKCAGLKKQETPDQVGSQRFSVNMPHKFGIHNYKVPTFCDHCGSLLWGLLRQGLQCKVCKMNVHRRCETNVAPNCGVDARGIAKVLADLGVTPDKITNSGQRRKKLIAGAESPQPASGGSPSEEDRSKSAPTSPCDQEIKELENNIRKALSFDNRGEEHRAASSPDGQLMSPGENGEVRQGQAKRLGLDEFNFIKVLGKGSFGKVMLAELKGKDEVYAVKVLKKDVILQDDDVDCTMTEKRILALARKHPYLTQLYCCFQTKDRLFFVMEYVNGGDLMFQIQRSRKFDEPRSRFYAAEVTSALMFLHQHGVIYRDLKLDNILLDAEGHCKLADFGMCKEGILNGVTTTTFCGTPDYIAPEILQELEYGPSVDWWALGVLMYEMMAGQPPFEADNEDDLFESILHDDVLYPVWLSKEAVSILKAFMTKNPHKRLGCVASQNGEDAIKQHPFFKEIDWVLLEQKKIKPPFKPRIKTKRDVNNFDQDFTREEPVLTLVDEAIVKQINQEEFKGFSYFGEDLMP
notes: Used as the soluble fraction of a Hi5 insect cell lysate containing 100 ng εPKC protein; also called D(86)A ΨεRACK mutant; A mutant

Legend:
[1] = target: T1, GST-εRACK (human εRACK expressed as a GST fusion protein) (human) (UniProt P35606); experiment: pull-down on immobilized GST-εRACK with and without phospholipid activators, Western blot
T1 sequence (looked up): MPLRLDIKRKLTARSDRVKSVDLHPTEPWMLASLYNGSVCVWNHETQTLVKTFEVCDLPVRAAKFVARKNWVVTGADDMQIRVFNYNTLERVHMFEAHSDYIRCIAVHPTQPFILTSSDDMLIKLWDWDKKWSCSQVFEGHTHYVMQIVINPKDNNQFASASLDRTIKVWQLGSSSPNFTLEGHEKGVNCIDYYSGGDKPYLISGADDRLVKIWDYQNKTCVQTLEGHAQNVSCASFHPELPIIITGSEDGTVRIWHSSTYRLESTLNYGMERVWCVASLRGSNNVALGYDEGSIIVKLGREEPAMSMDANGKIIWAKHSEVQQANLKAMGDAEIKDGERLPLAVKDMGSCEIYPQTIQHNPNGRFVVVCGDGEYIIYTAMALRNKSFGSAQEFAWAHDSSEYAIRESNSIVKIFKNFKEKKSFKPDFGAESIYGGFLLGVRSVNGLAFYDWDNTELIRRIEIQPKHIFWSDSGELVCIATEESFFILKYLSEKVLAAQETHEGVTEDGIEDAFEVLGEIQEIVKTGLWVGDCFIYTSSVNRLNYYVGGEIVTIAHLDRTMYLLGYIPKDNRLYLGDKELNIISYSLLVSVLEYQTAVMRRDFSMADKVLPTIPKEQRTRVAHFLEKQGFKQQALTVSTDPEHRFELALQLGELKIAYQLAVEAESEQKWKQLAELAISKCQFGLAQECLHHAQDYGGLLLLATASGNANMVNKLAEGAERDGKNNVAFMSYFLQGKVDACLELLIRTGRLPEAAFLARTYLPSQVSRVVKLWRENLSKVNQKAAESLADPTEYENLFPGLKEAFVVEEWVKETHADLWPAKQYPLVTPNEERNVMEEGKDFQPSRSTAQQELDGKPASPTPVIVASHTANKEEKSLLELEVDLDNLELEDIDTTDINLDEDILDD

[2] = target: T1, GST-εRACK (human εRACK expressed as a GST fusion protein) (human); experiment: pull-down on immobilized GST-εRACK, Western blot (discussion of Example 5)

| Molecule | binding [1] | binding [2] |
| --- | --- | --- |
| εPKC Wt (human εPKC expressed in insect cells) (from UniProt Q02156 1-737) (enzyme) | binds | – |
| B1 | binds | binds |
